Laboratory results as given in US20150231203A1 (UTI LIMITED PARTNERSHIP, published 2015).
Results are given in words; binding and its absence hold for the method and conditions named. In cells and extracts the contact can be indirect. Some results given as binding are weak or reduced against the parent protein; the word gives no strength.

The chains behind the UniProt entries cited, without tags or fusion partners.
UniProt O88427: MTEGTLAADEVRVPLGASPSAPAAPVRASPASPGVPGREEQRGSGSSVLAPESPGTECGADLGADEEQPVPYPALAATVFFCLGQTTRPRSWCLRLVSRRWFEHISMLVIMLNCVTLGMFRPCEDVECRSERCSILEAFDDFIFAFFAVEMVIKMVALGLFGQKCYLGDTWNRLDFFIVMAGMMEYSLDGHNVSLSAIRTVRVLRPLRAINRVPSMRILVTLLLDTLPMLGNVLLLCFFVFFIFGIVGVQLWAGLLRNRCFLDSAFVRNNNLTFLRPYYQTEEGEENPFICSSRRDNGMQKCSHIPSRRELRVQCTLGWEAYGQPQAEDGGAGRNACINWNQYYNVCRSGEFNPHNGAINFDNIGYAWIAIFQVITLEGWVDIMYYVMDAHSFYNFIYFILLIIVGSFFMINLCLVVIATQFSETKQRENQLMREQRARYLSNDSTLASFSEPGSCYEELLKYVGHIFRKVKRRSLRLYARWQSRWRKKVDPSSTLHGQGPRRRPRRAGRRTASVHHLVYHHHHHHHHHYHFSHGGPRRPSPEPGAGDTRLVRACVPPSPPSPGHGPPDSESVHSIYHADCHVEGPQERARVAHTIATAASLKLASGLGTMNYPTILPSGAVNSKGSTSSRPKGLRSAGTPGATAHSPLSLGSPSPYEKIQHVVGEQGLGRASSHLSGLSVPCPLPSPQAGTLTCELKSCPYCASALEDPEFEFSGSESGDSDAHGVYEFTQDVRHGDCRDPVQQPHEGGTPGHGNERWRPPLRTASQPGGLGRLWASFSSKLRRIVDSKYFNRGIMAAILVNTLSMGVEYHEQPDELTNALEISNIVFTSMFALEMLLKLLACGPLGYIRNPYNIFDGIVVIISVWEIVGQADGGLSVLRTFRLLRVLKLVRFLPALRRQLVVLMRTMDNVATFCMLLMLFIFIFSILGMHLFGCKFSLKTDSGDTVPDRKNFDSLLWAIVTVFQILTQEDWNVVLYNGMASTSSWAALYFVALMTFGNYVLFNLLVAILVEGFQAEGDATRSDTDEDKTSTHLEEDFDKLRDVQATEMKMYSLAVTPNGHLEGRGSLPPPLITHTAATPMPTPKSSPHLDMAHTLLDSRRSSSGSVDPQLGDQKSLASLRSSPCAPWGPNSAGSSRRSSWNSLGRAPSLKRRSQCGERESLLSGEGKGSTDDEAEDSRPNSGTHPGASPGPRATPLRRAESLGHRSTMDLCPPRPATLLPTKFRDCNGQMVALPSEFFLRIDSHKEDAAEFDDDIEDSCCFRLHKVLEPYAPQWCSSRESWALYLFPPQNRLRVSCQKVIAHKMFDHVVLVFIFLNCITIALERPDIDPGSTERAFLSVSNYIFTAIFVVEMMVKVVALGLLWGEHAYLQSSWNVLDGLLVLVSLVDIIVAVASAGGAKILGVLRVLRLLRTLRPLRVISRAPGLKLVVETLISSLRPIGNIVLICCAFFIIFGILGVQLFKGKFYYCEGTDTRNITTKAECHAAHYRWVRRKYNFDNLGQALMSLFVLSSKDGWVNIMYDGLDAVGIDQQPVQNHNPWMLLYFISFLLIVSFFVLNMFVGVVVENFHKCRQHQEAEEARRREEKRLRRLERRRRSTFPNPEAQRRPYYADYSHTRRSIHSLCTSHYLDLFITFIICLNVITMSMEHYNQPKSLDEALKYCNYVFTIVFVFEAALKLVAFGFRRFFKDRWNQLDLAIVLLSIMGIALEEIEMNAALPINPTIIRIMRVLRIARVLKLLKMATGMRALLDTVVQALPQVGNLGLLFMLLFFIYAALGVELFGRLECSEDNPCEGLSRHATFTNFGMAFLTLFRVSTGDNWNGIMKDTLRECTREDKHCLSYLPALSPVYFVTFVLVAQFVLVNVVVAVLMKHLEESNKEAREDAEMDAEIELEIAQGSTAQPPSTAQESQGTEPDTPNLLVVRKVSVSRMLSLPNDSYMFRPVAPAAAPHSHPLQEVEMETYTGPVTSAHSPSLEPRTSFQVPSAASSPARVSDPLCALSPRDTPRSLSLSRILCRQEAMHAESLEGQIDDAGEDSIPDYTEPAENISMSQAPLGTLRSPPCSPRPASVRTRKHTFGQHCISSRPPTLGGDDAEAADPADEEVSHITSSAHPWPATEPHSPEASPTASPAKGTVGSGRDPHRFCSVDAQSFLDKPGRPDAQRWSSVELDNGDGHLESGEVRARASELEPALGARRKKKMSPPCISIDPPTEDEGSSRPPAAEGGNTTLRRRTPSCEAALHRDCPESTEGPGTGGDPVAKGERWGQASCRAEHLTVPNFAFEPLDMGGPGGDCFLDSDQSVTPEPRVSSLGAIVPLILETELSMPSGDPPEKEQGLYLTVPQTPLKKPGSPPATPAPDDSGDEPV

Experiments:
[1] = biological target: Cav3.2 channel (mouse, endogenous full-length channel from DRG, brain or dorsal horn) (mouse) (UniProt O88427); assay: summary of affinity precipitation and co-immunoprecipitation
[2] = biological target: Cav3.2 channel (mouse, endogenous full-length channel from DRG, brain or dorsal horn) (mouse) (UniProt O88427); assay: co-immunoprecipitation: Cav3.2 immunoprecipitates from mouse DRG lysate probed for WWP1
[3] = biological target: USP5 (mouse, endogenous, from brain, DRG or dorsal horn lysate) (mouse) (UniProt P56399); assay: co-immunoprecipitation from mouse DRG, western blot for USP5
[4] = biological target: Cav3.2 channel (mouse, endogenous full-length channel from DRG, brain or dorsal horn) (mouse) (UniProt O88427); assay: co-immunoprecipitation from mouse dorsal horn lysate
[5] = biological target: Cav3.2 channel (mouse, endogenous full-length channel from DRG, brain or dorsal horn) (mouse) (UniProt O88427); assay: co-immunoprecipitation from L4-L6 dorsal horn tissue after chronic constriction injury
[6] = biological target: Cav3.2 channel (mouse, endogenous full-length channel from DRG, brain or dorsal horn) (mouse) (UniProt O88427); assay: summary of the co-immunoprecipitation from mouse tissue

Molecule: WWP1 (mouse, endogenous, from DRG lysate) (from UniProt Q8BZZ3 1-918) (enzyme)
- binding [1]: binds
- binding [2]: binds

Molecule: Cav3.2 channel (mouse, endogenous full-length channel from DRG, brain or dorsal horn) (from UniProt O88427 1-2365)
- binding [3]: binds

B1: USP5 (mouse, endogenous, from brain, DRG or dorsal horn lysate) (enzyme, UniProt P56399 2-858, looked up)
chain: AELSEEALLSVLPTIRVPKAGDRVHKDECAFSFDTPESEGGLYICMNTFLGFGKQYVERHFNKTGQRVYLHLRRTRRPKEEDTSAGTGDPPRKKPTRLAIGVEGGFDLTEDKFEFDEDVKIVILPDYLEIARDGLGGLPDIVRDRVTSAVEALLSADSASRKQEVQAWDGEVRQVSKHAFNLKQLDNPARIPPCGWKCSKCDMRENLWLNLTDGSILCGRRYFDGSGGNNHAVEHYRETGYPLAVKLGTITPDGADVYSYDEDDMVLDPSLAEHLSHFGIDMLKMQKTDKTMTELEIDMNQRIGEWELIQESGVPLKPLFGPGYTGIRNLGNSCYLNSVVQVLFSIPDFQRKYVDKLEKIFQNAPTDPTQDFSTQVAKLGHGLLSGEYSKPALESGDGEQVPEQKEVQDGIAPRMFKALIGKGHPEFSTNRQQDAQEFFLHLINMVERNCRSSENPNEVFRFLVEEKIKCLATEKVKYTQRVDYIMQLPVPMDAALNKEELLEYEEKKRQAEEEKVPLPELVRAQVPFSSCLEAYGAPEQVDDFWSTALQAKSVAVKTTRFASFPDYLVIQIKKFTFGLDWVPKKLDVSIEMPEELDISQLRGTGLQPGEEELPDIAPPLVTPDEPKGSLGFYGNEDEDSFCSPHFSSPTSPMLDESVIIQLVEMGFPMDACRKAVYYTGNSGAEAAMNWVMSHMDDPDFANPLILPGSSGPGSTSAAADPPPEDCVTTIVSMGFSRDQALKALRATNNSLERAVDWIFSHIDDLDAEAAMDISEGRSAAESISESVPVGPKVRDGPGKYQLFAFISHMGTSTMCGHYVCHIKKEGRWVIYNDQKVCASEKPPKDLGYIYFYQRVVS
- binding [4]: binds
- binding [5]: binds
- binding [6]: binds
